From publication doi:10.1101/2025.09.02.673672
These are yes or no findings as the source states them, for the method shown. Some results given as binding are weak or reduced against the parent protein; the word gives no strength. Tags and fused reporters may be left off the sequences shown.

Chains of the proteins cited; added tags and fusions are not shown. Residues count along the entry.
UniProt Q9WJB2, 3808-3960: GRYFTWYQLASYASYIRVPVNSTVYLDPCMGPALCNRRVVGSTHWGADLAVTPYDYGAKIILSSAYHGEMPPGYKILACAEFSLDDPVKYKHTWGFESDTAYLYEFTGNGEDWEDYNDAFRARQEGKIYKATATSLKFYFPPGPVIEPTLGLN

Tests used:
[1] = target: T1, pGBKT7-NBR1 (bait fusion) (UniProt Q14596); test: two-hybrid
T1 sequence: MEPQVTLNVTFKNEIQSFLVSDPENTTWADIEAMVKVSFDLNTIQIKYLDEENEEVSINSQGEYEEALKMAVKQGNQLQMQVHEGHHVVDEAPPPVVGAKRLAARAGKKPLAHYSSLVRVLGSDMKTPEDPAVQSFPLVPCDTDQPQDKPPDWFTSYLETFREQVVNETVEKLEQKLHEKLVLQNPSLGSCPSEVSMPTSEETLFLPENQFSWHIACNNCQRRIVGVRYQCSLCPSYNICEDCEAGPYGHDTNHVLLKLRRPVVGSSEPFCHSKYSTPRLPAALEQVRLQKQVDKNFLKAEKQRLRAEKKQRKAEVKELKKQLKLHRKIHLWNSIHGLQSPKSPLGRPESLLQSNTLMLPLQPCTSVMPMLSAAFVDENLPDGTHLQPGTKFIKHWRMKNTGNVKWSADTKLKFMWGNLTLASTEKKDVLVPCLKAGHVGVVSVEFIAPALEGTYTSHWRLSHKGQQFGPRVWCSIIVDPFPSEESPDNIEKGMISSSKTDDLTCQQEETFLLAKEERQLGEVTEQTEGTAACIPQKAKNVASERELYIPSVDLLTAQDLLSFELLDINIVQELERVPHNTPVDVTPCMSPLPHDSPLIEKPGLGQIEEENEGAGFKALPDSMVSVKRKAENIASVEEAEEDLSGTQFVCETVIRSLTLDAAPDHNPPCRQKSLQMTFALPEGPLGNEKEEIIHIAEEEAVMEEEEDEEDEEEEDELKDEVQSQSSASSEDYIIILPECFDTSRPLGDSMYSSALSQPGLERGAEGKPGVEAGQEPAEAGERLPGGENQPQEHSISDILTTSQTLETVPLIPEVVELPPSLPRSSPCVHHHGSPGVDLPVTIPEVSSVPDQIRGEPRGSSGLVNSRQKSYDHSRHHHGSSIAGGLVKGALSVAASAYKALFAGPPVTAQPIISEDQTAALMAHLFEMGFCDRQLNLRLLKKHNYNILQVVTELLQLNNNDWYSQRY

[2] = target: T2, pGBKT7-NDP52 (bait fusion) (UniProt Q13137); test: two-hybrid
T2 sequence: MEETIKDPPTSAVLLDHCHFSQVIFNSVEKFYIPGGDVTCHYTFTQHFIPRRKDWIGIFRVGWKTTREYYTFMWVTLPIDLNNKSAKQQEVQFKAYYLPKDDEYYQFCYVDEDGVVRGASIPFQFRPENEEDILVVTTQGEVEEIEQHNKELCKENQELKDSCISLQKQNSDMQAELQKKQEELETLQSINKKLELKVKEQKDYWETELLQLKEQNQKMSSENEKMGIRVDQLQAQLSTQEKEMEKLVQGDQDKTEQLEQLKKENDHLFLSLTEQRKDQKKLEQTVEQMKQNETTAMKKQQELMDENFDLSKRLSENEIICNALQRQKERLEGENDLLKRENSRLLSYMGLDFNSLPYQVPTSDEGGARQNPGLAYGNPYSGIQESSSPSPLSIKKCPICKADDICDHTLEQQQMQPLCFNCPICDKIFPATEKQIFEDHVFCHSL

Substance: pGADT7-nsp12 (PRRSV nsp12 prey fusion) (from UniProt Q9WJB2 3808-3960)
- binding [1]: binds
- binding [2]: binds
